The other results are listed elsewhere or left out. The calls rarely recur for the same compound in another form.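 In K562 cells expressing nanoluciferase-fused kinases, luminescence was recorded at 4 h intervals between 2 and 18 h, normalized as percent of control with DMSO at 100% and a positive control at 0%. A significant (2 sigma) signal drop marks a time point as decreased. The authors' rule for a hit is not shown and takes in more than the number of time points.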
Assays:
Assay in all cases: kinase-Nluc reporter destabilization hit call (1 = scored as downregulated) (binary); higher = compound decreases kinase abundance
Conditions in all cases: K562; 2-18 h
MAPK1 = MAPK1 (UniProt P28482)
MAPK4 = MAPK4 (UniProt P31152)
MAPKAPK2 = MAPKAPK2 (UniProt P49137)
MKNK1 = MKNK1 (UniProt Q9BUB5)
NTRK2 = NTRK2 (UniProt Q16620)
NTRK3 = NTRK3 (UniProt Q16288)
PAK4 = PAK4 (UniProt O96013)
PBK = PBK (UniProt Q96KB5)
PDGFRB = PDGFRB (UniProt P09619)
PDK1 = PDK1 (UniProt Q15118)
PDPK1 = PDPK1 (UniProt O15530)
PIK4CA = PIK4CA (UniProt P42356)
PIK4CB = PIK4CB (UniProt Q9UBF8)
PLK1 = PLK1 (UniProt P53350)
PRKAA1 = PRKAA1 (UniProt Q13131)
PRKCA = PRKCA (UniProt P17252)
PTK2 = PTK2 (UniProt Q05397)
PTK2B = PTK2B (UniProt Q14289)
RAF1 = RAF1 (UniProt P04049)
[1] = molecular target: RAF1_S257L (clone: RAF1_mut) (UniProt P04049)

Protein sequences, listed by entry. Tags and fused reporters are not part of them. Lines headed by an entry give the natural chain unless they say otherwise; changes in a name come on top.
UniProt P28482, whole entry: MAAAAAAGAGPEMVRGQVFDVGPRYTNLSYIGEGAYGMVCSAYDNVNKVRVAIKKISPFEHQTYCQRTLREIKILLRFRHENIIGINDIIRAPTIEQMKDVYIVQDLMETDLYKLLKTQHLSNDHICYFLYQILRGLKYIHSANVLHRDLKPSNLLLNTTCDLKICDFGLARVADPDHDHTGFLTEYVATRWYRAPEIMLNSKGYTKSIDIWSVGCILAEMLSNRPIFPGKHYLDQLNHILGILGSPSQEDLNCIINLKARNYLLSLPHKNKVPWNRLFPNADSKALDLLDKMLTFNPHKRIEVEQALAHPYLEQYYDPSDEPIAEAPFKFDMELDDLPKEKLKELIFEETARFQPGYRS
UniProt P49137, whole entry, looked up: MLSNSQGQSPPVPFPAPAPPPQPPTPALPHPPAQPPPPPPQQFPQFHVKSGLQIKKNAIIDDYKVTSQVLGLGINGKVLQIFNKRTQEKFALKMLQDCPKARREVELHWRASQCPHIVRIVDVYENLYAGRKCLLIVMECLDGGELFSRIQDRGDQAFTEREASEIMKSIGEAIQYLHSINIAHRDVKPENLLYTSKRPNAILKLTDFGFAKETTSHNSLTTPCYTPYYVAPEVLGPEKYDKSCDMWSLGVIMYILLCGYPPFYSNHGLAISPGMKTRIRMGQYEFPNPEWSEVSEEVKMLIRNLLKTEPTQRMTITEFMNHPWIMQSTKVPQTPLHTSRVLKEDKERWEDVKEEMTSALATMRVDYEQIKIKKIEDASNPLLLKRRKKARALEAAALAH
UniProt Q9BUB5: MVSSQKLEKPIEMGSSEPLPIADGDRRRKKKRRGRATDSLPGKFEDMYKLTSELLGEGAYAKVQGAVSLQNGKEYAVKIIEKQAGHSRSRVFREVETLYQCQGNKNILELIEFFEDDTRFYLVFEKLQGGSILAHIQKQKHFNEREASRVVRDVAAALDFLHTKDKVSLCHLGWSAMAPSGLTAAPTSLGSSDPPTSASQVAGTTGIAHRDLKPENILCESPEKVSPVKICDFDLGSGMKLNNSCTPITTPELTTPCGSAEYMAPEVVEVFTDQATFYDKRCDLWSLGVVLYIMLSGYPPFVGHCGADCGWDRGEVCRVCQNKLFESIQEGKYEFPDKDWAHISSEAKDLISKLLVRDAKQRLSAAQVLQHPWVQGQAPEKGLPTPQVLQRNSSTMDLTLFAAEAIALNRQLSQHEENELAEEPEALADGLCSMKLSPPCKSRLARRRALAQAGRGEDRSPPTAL
UniProt Q16620, whole entry, looked up: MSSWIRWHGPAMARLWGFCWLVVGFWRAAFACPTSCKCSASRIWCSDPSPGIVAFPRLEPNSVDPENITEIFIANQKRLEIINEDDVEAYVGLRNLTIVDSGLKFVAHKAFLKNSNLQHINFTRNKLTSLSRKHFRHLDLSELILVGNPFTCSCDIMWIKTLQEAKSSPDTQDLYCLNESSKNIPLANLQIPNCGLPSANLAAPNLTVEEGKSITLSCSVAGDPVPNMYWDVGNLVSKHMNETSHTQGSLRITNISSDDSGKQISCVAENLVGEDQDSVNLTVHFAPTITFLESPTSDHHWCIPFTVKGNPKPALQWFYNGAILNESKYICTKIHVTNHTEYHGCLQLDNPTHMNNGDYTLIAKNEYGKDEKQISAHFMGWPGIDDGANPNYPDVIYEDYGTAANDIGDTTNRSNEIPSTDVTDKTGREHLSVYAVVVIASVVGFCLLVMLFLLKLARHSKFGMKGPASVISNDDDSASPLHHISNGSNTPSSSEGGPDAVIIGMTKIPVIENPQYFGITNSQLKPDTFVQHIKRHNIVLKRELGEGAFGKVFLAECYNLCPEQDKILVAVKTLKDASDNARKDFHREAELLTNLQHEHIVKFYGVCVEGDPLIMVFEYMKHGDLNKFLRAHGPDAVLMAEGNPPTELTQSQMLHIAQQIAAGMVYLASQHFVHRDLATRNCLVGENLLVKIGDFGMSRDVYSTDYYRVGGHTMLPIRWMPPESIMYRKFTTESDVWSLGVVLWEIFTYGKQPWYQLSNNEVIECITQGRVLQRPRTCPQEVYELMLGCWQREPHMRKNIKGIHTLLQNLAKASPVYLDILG
UniProt O96013: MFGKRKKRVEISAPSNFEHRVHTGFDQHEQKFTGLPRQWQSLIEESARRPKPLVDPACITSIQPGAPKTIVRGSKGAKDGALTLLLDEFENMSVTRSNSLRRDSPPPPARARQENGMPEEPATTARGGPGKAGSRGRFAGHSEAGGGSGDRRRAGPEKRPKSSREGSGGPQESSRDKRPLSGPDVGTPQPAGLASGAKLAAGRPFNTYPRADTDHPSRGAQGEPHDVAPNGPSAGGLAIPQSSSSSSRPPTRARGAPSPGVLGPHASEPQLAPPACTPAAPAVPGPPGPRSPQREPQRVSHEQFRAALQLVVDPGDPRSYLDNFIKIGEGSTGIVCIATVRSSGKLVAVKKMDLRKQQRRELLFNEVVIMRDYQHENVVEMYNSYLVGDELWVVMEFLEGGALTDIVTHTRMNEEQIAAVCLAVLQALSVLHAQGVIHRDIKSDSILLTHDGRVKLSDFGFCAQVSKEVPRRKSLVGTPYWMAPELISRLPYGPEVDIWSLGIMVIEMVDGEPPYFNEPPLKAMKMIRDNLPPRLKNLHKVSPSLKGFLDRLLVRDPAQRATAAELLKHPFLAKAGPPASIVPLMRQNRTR
UniProt P09619, whole entry: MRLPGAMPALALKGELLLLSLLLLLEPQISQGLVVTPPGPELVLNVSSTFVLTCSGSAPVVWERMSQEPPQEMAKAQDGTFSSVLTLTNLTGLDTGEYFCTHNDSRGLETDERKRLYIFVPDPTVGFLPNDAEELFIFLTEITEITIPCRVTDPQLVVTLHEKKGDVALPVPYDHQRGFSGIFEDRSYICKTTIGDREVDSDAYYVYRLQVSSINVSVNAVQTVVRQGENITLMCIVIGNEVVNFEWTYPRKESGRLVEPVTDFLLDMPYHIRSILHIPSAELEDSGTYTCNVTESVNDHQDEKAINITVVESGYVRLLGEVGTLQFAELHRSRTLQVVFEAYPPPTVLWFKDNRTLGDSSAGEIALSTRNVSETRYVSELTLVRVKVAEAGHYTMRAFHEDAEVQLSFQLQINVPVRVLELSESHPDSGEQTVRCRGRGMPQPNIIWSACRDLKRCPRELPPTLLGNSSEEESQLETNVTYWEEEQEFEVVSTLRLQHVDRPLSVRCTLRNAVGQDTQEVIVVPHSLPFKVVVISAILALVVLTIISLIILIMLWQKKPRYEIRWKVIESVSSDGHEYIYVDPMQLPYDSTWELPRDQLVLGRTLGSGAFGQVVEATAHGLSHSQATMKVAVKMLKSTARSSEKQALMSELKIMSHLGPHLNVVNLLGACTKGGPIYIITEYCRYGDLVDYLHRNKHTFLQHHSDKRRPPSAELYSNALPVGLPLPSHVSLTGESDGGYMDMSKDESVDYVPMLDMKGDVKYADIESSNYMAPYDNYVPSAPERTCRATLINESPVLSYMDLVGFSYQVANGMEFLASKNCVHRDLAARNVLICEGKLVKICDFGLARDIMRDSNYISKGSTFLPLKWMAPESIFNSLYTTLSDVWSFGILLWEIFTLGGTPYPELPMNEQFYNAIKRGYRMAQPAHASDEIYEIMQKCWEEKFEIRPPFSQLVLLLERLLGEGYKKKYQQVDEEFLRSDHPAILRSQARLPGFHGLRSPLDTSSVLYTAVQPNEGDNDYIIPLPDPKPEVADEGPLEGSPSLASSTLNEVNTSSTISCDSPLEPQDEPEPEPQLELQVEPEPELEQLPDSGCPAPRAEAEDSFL
UniProt O15530: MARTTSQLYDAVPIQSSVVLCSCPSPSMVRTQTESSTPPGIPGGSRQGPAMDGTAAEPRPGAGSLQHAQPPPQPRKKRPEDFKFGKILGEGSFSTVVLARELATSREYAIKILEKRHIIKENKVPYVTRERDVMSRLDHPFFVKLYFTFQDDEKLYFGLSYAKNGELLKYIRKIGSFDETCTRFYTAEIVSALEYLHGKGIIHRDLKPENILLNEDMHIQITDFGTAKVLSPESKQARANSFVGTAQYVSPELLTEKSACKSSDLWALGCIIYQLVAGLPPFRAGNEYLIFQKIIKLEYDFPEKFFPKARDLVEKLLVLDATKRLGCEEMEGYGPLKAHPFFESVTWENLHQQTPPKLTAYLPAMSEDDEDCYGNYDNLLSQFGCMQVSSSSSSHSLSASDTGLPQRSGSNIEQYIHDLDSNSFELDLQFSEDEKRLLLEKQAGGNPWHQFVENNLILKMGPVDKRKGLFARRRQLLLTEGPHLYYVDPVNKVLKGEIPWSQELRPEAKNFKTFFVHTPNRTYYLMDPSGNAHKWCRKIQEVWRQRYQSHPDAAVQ
UniProt P53350, whole entry: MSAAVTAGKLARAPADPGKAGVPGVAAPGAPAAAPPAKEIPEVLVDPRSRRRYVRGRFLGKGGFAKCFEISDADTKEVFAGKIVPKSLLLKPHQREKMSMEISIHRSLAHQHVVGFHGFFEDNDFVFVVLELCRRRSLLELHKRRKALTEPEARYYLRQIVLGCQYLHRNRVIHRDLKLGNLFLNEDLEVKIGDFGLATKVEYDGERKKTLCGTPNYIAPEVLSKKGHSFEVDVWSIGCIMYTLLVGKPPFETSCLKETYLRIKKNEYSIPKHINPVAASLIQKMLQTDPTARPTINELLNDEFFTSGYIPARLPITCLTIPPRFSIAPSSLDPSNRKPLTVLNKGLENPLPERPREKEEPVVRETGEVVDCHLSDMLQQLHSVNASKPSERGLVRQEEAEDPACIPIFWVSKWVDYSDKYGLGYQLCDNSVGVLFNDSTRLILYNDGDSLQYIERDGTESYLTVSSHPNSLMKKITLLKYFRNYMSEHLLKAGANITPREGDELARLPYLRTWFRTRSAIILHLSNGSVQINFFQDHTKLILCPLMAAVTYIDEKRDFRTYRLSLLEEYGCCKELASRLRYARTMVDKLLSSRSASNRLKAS
UniProt Q14289, whole entry, looked up: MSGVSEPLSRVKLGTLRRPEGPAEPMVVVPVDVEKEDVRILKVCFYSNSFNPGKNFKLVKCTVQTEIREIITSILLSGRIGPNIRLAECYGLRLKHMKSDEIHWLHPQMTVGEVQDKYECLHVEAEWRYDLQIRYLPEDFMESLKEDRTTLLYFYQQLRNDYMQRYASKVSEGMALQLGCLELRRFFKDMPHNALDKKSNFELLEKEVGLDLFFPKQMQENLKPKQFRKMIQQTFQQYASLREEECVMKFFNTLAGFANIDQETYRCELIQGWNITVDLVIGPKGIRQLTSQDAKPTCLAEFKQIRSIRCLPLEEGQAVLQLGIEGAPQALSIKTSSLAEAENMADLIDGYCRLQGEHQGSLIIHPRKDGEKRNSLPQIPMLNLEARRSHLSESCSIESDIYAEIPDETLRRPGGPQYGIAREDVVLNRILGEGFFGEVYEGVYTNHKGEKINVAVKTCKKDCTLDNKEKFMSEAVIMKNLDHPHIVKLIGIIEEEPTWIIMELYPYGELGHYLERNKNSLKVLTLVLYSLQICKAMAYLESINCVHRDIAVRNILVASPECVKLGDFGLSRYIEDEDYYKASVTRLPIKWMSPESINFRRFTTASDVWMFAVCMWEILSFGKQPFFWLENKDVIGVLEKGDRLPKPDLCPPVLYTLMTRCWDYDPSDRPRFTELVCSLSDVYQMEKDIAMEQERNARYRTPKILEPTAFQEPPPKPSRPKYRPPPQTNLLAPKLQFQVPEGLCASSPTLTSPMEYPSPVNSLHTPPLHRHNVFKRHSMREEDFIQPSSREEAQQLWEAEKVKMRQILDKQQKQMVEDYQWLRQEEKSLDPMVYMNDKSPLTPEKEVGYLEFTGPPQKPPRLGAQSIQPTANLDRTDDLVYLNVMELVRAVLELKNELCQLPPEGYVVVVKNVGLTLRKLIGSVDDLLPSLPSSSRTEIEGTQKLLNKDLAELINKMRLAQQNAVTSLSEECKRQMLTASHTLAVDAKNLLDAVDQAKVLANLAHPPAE

Measured: kinase-Nluc reporter destabilization hit call

CO[C@H]1C[C@@H]2CC[C@@H](C)[C@@](O)(O2)C(=O)C(=O)N2CCCC[C@H]2C(=O)O[C@H]([C@H](C)C[C@@H]2CC[C@@H](OC(=O)C(C)(CO)CO)[C@H](OC)C2)CC(=O)[C@H](C)/C=C(\C)[C@@H](O)[C@@H](OC)C(=O)[C@H](C)C[C@H](C)/C=C/C=C/C=C/1C [Temsirolimus] (2.5 µM)
inactive: MAPK1 = 0 | MAPK4 = 0 | MAPKAPK2 = 0 | MKNK1 = 0 | NTRK2 = 0 | NTRK3 = 0 | PAK4 = 0 | PBK 0 | PDGFRB 0 | PDK1 = 0 | PDPK1 = 0 | PIK4CA 0 | PIK4CB 0 | PLK1 = 0 | PRKAA1 = 0 | PRKCA 0 | PTK2 = 0 | PTK2B 0 | RAF1 = 0 | [1] 0

O=C1CC[C@H](NC(=O)Cc2ccccc2)C(=O)N1 [Antineoplaston A10] (10 µM)
inactive: MAPK1 = 0 | MAPK4 = 0 | MAPKAPK2 = 0 | MKNK1 = 0 | NTRK2 = 0 | NTRK3 = 0 | PAK4 = 0 | PBK 0 | PDGFRB 0 | PDK1 = 0 | PDPK1 = 0 | PIK4CA 0 | PIK4CB 0 | PLK1 = 0 | PRKAA1 = 0 | PRKCA 0 | PTK2 = 0 | PTK2B 0 | RAF1 = 0 | [1] 0

CCC(=O)Nc1cccc(Oc2nc(Nc3ccc(N4CCN(C)CC4)cc3OC)ncc2Cl)c1 (10 µM)
inactive: MAPK1 = 0 | MAPK4 = 0 | MAPKAPK2 = 0 | MKNK1 = 0 | NTRK2 = 0 | NTRK3 = 0 | PAK4 = 0 | PBK 0 | PDGFRB 0 | PDK1 = 0 | PDPK1 = 0 | PIK4CA 0 | PIK4CB 0 | PLK1 = 0 | PRKAA1 = 0 | PRKCA 0 | PTK2 = 0 | PTK2B 0 | RAF1 = 0 | [1] 0

C=CC(=O)N1CCN(C(=O)CNc2cc(I)c(Cl)cc2O)CC1 [K-Ras(G12C) inhibitor 12] (10 µM)
inactive: MAPK1 = 0 | MAPK4 = 0 | MAPKAPK2 = 0 | MKNK1 = 0 | NTRK2 = 0 | NTRK3 = 0 | PAK4 = 0 | PBK 0 | PDGFRB 0 | PDK1 = 0 | PDPK1 = 0 | PIK4CA 0 | PIK4CB 0 | PLK1 = 0 | PRKAA1 = 0 | PRKCA 0 | PTK2 = 0 | PTK2B 0 | RAF1 = 0 | [1] 0

COc1cc(F)ccc1-c1ncnc(Nc2cccc(C[S@](C)(=N)=O)c2)n1 [Atuveciclib] (2.5 µM)
inactive: MAPK1 = 0 | MAPK4 = 0 | MAPKAPK2 = 0 | MKNK1 = 0 | NTRK2 = 0 | NTRK3 = 0 | PAK4 = 0 | PBK 0 | PDGFRB 0 | PDK1 = 0 | PDPK1 = 0 | PIK4CA 0 | PIK4CB 0 | PLK1 = 0 | PRKAA1 = 0 | PRKCA 0 | PTK2 = 0 | PTK2B 0 | RAF1 = 0 | [1] 0

CC(C)n1c(=O)n(C)c2cnc3cc(F)c(-c4ccc(OCCCN5CCCCC5)nc4)cc3c21 (10 µM)
inactive: MAPK1 = 0 | MAPK4 = 0 | MAPKAPK2 = 0 | MKNK1 = 0 | NTRK2 = 0 | NTRK3 = 0 | PAK4 = 0 | PBK 0 | PDGFRB 0 | PDK1 = 0 | PDPK1 = 0 | PIK4CA 0 | PIK4CB 0 | PLK1 = 0 | PRKAA1 = 0 | PRKCA 0 | PTK2 = 0 | PTK2B 0 | RAF1 = 0 | [1] 0

O=C1Nc2ccc(CN3C(=O)CSC3=O)cc2/C1=C/c1cc(CN2CCOCC2)c[nH]1 (10 µM)
inactive: MAPK1 = 0 | MAPK4 = 0 | MAPKAPK2 = 0 | MKNK1 = 0 | NTRK2 = 0 | NTRK3 = 0 | PAK4 = 0 | PBK 0 | PDGFRB 0 | PDK1 = 0 | PDPK1 = 0 | PIK4CA 0 | PIK4CB 0 | PLK1 = 0 | PRKAA1 = 0 | PRKCA 0 | PTK2 = 0 | PTK2B 0 | RAF1 = 0 | [1] 0

N#Cc1ccc2ncnc(NCCc3ccccc3)c2c1 [Senexin A] (10 µM)
inactive: MAPK1 = 0 | MAPK4 = 0 | MAPKAPK2 = 0 | MKNK1 = 0 | NTRK2 = 0 | NTRK3 = 0 | PAK4 = 0 | PBK 0 | PDGFRB 0 | PDK1 = 0 | PDPK1 = 0 | PIK4CA 0 | PIK4CB 0 | PLK1 = 0 | PRKAA1 = 0 | PRKCA 0 | PTK2 = 0 | PTK2B 0 | RAF1 = 0 | [1] 0

c1nc2c(NC3CCCCC3)nc(Nc3ccc(N4CCOCC4)cc3)nc2[nH]1 [Reversine] (10 µM)
inactive: MAPK1 = 0 | MAPK4 = 0 | MAPKAPK2 = 0 | MKNK1 = 0 | NTRK2 = 0 | NTRK3 = 0 | PAK4 = 0 | PBK 0 | PDGFRB 0 | PDK1 = 0 | PDPK1 = 0 | PIK4CA 0 | PIK4CB 0 | PLK1 = 0 | PRKAA1 = 0 | PRKCA 0 | PTK2 = 0 | PTK2B 0 | RAF1 = 0 | [1] 0

CCn1c(-c2nonc2N)nc2c(C#CC(C)(C)O)ncc(OC[C@H]3CCCNC3)c21 (10 µM)
inactive: MAPK1 = 0 | MAPK4 = 0 | MAPKAPK2 = 0 | MKNK1 = 0 | NTRK2 = 0 | NTRK3 = 0 | PAK4 = 0 | PBK 0 | PDGFRB 0 | PDK1 = 0 | PDPK1 = 0 | PIK4CA 0 | PIK4CB 0 | PLK1 = 0 | PRKAA1 = 0 | PRKCA 0 | PTK2 = 0 | PTK2B 0 | RAF1 = 0 | [1] 0

Cc1cc(Nc2cc(N3CCN(C)CC3)nc(Nc3ccc([N+](=O)[O-])cc3)n2)n[nH]1 (2.5 µM)
inactive: MAPK1 = 0 | MAPK4 = 0 | MAPKAPK2 = 0 | MKNK1 = 0 | NTRK2 = 0 | NTRK3 = 0 | PAK4 = 0 | PBK 0 | PDGFRB 0 | PDK1 = 0 | PDPK1 = 0 | PIK4CA 0 | PIK4CB 0 | PLK1 = 0 | PRKAA1 = 0 | PRKCA 0 | PTK2 = 0 | PTK2B 0 | RAF1 = 0 | [1] 0

CC1CN(CC2CCN(Cc3ccccc3)CC2)C(=O)N(c2cccc(C(=N)N)c2)C1 (stereo not given) (10 µM)
inactive: MAPK1 = 0 | MAPK4 = 0 | MAPKAPK2 = 0 | MKNK1 = 0 | NTRK2 = 0 | NTRK3 = 0 | PAK4 = 0 | PBK 0 | PDGFRB 0 | PDK1 = 0 | PDPK1 = 0 | PIK4CA 0 | PIK4CB 0 | PLK1 = 0 | PRKAA1 = 0 | PRKCA 0 | PTK2 = 0 | PTK2B 0 | RAF1 = 0 | [1] 0

— the supplement of paper PMC12823440, “Inhibitors supercharge kinase turnover through native proteolytic circuits” (Nature, 2025)
